Some entries share one result that the patent states for a list of compounds. At least one structure is not confirmed: it was looked up by name or label, or the drawing left a doubt.
Legend:
rNPFF-2 [1] = target: T1, rNPFF-2 (Rattus norvegicus, UniProt Q9EQD2); test: Functional activity (EC50 and intrinsic activity relative to NPFF); assay type: cell-based; details: rat cloned NPFF receptors, by IA and Ki
T1 construct: expressed in transfected cells

The chains behind the UniProt entries cited, without tags or fusion partners. Where a name states a change or a piece, a line headed by the entry shows the natural chain unless it says otherwise.
UniProt Q9EQD2: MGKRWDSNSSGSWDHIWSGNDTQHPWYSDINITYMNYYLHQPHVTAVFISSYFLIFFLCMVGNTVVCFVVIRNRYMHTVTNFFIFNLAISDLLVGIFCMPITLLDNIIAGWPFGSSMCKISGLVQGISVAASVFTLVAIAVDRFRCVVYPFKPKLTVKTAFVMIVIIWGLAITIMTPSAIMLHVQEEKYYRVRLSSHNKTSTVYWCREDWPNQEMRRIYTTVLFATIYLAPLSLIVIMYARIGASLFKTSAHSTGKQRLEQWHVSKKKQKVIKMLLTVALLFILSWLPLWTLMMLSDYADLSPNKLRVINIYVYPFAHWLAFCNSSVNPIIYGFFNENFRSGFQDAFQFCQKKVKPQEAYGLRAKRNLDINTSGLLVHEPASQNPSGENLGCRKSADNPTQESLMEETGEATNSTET
UniProt Q9EP86: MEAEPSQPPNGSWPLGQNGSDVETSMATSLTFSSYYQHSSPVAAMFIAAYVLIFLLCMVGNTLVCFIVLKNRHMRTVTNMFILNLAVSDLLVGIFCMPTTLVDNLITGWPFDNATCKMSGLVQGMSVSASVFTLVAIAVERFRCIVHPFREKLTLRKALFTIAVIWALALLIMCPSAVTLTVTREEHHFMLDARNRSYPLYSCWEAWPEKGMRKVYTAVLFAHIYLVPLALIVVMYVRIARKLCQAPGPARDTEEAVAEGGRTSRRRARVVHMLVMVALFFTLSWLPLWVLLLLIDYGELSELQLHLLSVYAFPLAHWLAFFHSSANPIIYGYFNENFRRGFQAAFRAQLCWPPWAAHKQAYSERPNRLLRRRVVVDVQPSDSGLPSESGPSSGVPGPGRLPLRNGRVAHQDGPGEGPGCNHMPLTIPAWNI

rNPFF-1 = target: T2, rNPFF-1 (Rattus norvegicus, UniProt Q9EP86); test: as above; assay type: cell-based; details: rat cloned NPFF receptors, by IA and Ki
T2 construct: expressed in transfected cells

rNPFF-2 [2] = target: T1, rNPFF-2; test: Radioligand binding assay, competitive displacement of [125I]1DMeNPFF at cloned NPFF receptors; details: in words

Structure (SMILES)	classification agonist/antagonist at NPFF2 receptors (rNPFF-2 [1])	classification agonist/antagonist at NPFF1 receptors (rNPFF-1)	affinity to NPFF2 receptors (rNPFF-2 [2])
N=C(N)NCCC[C@@H](NS(=O)(=O)c1ccc(F)cc1)C(=O)N[C@@H](Cc1ccccc1)C(N)=O [Compound 1028]	agonists		
N=C(N)NCCC[C@H](NS(=O)(=O)c1c(F)cccc1F)C(=O)N[C@@H](Cc1ccccc1)C(N)=O [Compound 1004]		agonists	
COc1ccc(S(=O)(=O)N[C@@H](CCCNC(=N)N)C(=O)N[C@@H](Cc2ccccc2)C(N)=O)cc1 [Compound 1009]	agonists		
N=C(N)NCCC[C@H](NS(=O)(=O)c1ccc(F)cc1)C(=O)N[C@@H](Cc1ccccc1)C(N)=O [Compound 1005]	agonists		
N=C(N)NCCC[C@H](NS(=O)(=O)c1ccc([N+](=O)[O-])cc1[N+](=O)[O-])C(=O)N[C@@H](Cc1ccccc1)C(N)=O [Compound 2002]		agonists	weak or no affinity
N=C(N)NCCC[C@H](NS(=O)(=O)c1c(F)cccc1F)C(=O)N[C@H](Cc1ccccc1)C(N)=O [Compound 1032]	agonists	agonists	
COc1ccc(S(=O)(=O)N[C@@H](CCCNC(=N)N)C(=O)N[C@@H](Cc2ccccc2)C(N)=O)cc1OC [Compound 1015]	agonists	agonists	
